# Measurements reported in PubChem BioAssay AID1259415 (National Center for Advancing Translational Sciences (NCATS), 2018).
# Among all 410,000 compounds or so, about 18,000 (4.4%) were called active. Inconclusive results, whose numbers are uncertain, are shown with a selection of clear calls. Cut-off read from the data, not from the text of the source: active = activity change below about -60%; inconclusive = no clear call, values can overlap the other calls; inactive = above about -39%.
# Experiment: qHTS Assay for inhibitors of the human cytomegalovirus (HCMV)
# Conditions: HFF cells, HCMV-luciferase reporter, 72 h; at 57.5 µM; hits give low values
# How it was run: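 HFF cells seeded 16 h at 37C, treated with compounds, infected with luciferase-reporter HCMV at MOI 1 PFU/cell; luciferase read at 72 h post infection, normalized to buffer-only and Salinomycin controls.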
# % is set by controls: 0 for no effect and ±100 for the full control effect.
row,Structure (SMILES),"activity change, negative = inhibition"
1,Cc1ccc(NC(=O)CCn2nc(C)c(S(=O)(=O)N3CCCCC3)c2C)cc1Cl,inactive: 96.7%
2,OCC1(Cc2ccc(Cl)cc2)CCN(CCCc2ccccc2)CC1,inactive: -8.77%
3,COc1ccccc1C(CNC(=O)CN(C)S(=O)(=O)c1ccc(C)cc1)N1CCCC1 (centres undefined),inconclusive: -41.6%
4,CCC12CCN(CC3(O)CC3)C(Cc3ccc(O)cc31)C2(C)C (centres undefined),inconclusive: -41.5%
5,Cc1cccn2c(=O)c(C=NCCO)c(NCc3ccco3)nc12,inactive: -25.2%
6,COc1ccc(CCC(=O)Nc2cccc(Cl)c2)cc1,inconclusive: -43.4%
7,Cn1cnc(C(=O)N2CCN(c3ccccc3)CC2)c1C(=O)N1CCN(c2ccccc2)CC1,inconclusive: -45.2%
8,Cc1ccc(COc2coc(CN3CCN(C(=O)c4ccco4)CC3)cc2=O)cc1,inactive: 0.563%
9,FC(F)(F)c1cnc(NNC(=S)Nc2ccccc2)c(Cl)c1,inactive: -23.6%
10,CCOc1cc(C2C(C(=O)Nc3ccc(OC)cc3)=C(C)Nc3nc(SC)nn32)ccc1O (centres undefined),inconclusive: -57.2%
11,O=C(NC1CCS(=O)(=O)C1)c1cccc(S(=O)(=O)N2CCOCC2)c1 (centres undefined),inconclusive: -49.8%
12,c1ccc(-c2csc3ncnc(N4CCc5ccccc5C4)c23)cc1,inactive: -28.8%
13,CCOC(=O)N1CCN(C(=O)CCn2c(=S)[nH]c3ccccc3c2=O)CC1,inconclusive: -48.4%
14,Cc1ccc(N/N=C/c2ccc3c(c2)OCCO3)cc1Cl,inactive: -28.9%
15,OC(COC(c1ccc(Cl)cc1)c1ccc(Cl)cc1)CN1CCN(c2ccccn2)CC1 (centres undefined),inactive: 10.6%
16,CCOc1ccc(NC(=S)Nc2ccc(Br)cc2Cl)cc1,inconclusive: -50%
17,Nc1cc(S(=O)(=O)N2CCCCC2)ccc1Oc1ccc(Cl)cc1,active: -65.9%
18,Cc1cccc(NC(=O)CCC(=O)OCC(=O)c2ccc(Oc3ccc([N+](=O)[O-])cc3)cc2)c1,inactive: -3.42%
19,COc1cccc(CN(C)C(=O)c2cc(COc3ccc4ncccc4c3)on2)c1,active: -86.2%
20,COc1ccc(CCN2C(=O)C(Oc3ccccc3C)C2c2ccc3c(c2)OCO3)cc1 (centres undefined),inactive: -31.6%
21,COC1=C(Nc2ccc(OC)cc2)C(=O)C(OC)=C(Nc2ccc(OC)cc2)C1=O,inconclusive: -55.6%
22,COc1ccc(CCNC(=O)c2cc(S(=O)(=O)N3CCc4ccccc43)ccc2F)cc1OC,inconclusive: -54.2%
23,CCOC(=O)C1CCN(C(=O)CCCn2c(=O)c3cccn3c3cccnc32)CC1,inconclusive: -44.6%
24,c1ccc(CNc2ncnc3sccc23)cc1,active: -93.7%

# From compound 9 to 12, as listed above:
row,Structure (SMILES),"activity change, negative = inhibition"
9,FC(F)(F)c1cnc(NNC(=S)Nc2ccccc2)c(Cl)c1,inactive: -23.6%
10,CCOc1cc(C2C(C(=O)Nc3ccc(OC)cc3)=C(C)Nc3nc(SC)nn32)ccc1O (centres undefined),inconclusive: -57.2%
11,O=C(NC1CCS(=O)(=O)C1)c1cccc(S(=O)(=O)N2CCOCC2)c1 (centres undefined),inconclusive: -49.8%
12,c1ccc(-c2csc3ncnc(N4CCc5ccccc5C4)c23)cc1,inactive: -28.8%
